In patent US9523671B2, “Indoxyl sulfate as a biomarker of prebiotic efficacy for weight gain prevention” (Nestec S.A., priority 2013, dated 2016):

System: weight gain in high fat fed animals
Experiment: Correlation of urinary metabolites with weight gain in high fat fed animals
Type: in vivo, C57BL/6 mice

In the case of acylcarnitine [Acyl.carnitine], the “Correlation Coefficient with Weight Gain (r value), Ratio metabolite/creatinine T7” value is reported as −0.1396.
